# Percent effect of library compounds

Protein sequences, listed by entry. Tags and fused reporters are not part of them.
UniProt P9WNZ1, whole entry: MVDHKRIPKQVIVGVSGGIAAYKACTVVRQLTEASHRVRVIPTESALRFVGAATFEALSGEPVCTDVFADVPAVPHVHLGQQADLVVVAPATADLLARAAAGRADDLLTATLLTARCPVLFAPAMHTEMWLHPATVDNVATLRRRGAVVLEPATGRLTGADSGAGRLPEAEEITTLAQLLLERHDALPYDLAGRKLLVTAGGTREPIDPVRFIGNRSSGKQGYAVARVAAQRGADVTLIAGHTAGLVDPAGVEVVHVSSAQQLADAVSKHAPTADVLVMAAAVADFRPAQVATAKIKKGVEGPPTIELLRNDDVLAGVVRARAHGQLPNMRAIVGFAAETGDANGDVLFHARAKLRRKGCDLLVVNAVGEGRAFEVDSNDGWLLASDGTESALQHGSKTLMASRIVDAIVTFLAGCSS

Source: ChEMBL document CHEMBL3988442, “University of Dundee, Small-Polar-MMV Screening Library” (2021).

Leishmania in macrophages: 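Cell assay of Leishmania donovani living inside macrophages; the read-out is not stated. Concentration: 30 µM. Higher reads as stronger inhibition (inferred: compounds with an IC50 in retests scored well above the rest). About 69,000 compounds were tested under these conditions; 1.5% (about 1,000) showed 50% or more at least once.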
CoaBC: 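Coenzyme A biosynthesis protein CoaBC, Mycobacterium tuberculosis (UniProt P9WNZ1). Enzyme assay of CoaBC with a phosphate dye (Biomol Green) read at 650 nm. Compounds at 30 µM. Direction is inferred from only a few compounds that gave an IC50; most scored high, so higher reads as stronger inhibition. Most strong results did not repeat in a second test. About 67,000 compounds were tested under these conditions; 0.06% (about 40) showed 50% or more at least once.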

Each number is a percent effect as filed. The record does not define 0% and 100%; most values in the screen are far below 50% and negative numbers occur (in some assays of this library far below -100). This is an unselected part of the compounds tested. Two or more numbers in one place are separate tests of the same structure; such repeats can differ widely. A dash means the value is not listed here; it may have been measured.

structure	Leishmania in macrophages	CoaBC
[H][C@@]12CCN(c3ncccn3)[C@]1([H])CC[C@@H](C(=O)N1CCCO1)O2	16.92	-
Cl.Cn1nc(C2CCCN(Cc3cc(F)cc(F)c3)C2)c2nccnc21 (stereo not given)	-10.6	-
Cc1ccc(CNC(=O)c2oc3ccccc3c2CN(C)C)n1C	22.49	-2.066
c1ccc(COC[C@@H]2CCC[C@]23CN(Cc2nccs2)CCO3)nc1	-	-2.25
Cc1nc(Oc2ccccc2F)sc1C(=O)O	32.59	5.811
Cc1ccc(-c2noc(C(O)CC(C)C)n2)nn1 (stereo not given)	25.3	6.291
CCOc1ccccc1CN1CCc2nc3ccsc3c(=O)n2CC1	-	-0.3717
CCCc1nnc2sc(C3CCN(C4CCN(C)CC4)CC3)nn12	5.983	-0.7407
Cc1nn(C)c2nc(O)cc(C(F)(F)C(F)(F)F)c12	1.679	11.81
CCc1ncc(C(=O)N(C)CC2Cc3ccccc3O2)cn1 (stereo not given)	-17.88	6.127
CCC(CC)NC(=O)c1cccnc1-n1cccn1	-29.79	12.38
CC(=O)N(C)C1CCN(C(=O)c2cccc3c2ccn3C)CC1	2.54	2.503
Cc1cc(C(=O)Nc2ccc(N3CCCC3)cn2)ccc1-n1cncn1	2.402	6.21
O=C(Nc1ccccn1)C1=NN(c2ccccc2)C(=O)CN1	-11.19	2.057
COc1ccc(OC)c2c(C)cc(N(C)CCCO)nc12	23.54	5.832
O=C(NCC1CCCCC1)c1nnn(-c2ccc(Br)cc2)n1	4.713 and 10.63	6.977
Cc1cc(C)n(CC2CN(CC3CCCC3)CCO2)n1 (stereo not given)	10.31	3.484
[H][C@@]12CN(S(=O)(=O)c3ccc(C#N)cc3)C[C@]1([H])OCCN2C(C)C	0.5995	-
Cc1cccc(COc2ccc(C(C)NC(=O)CNC(N)=O)cc2)c1 (stereo not given)	10.71	6.796
CC(c1ccon1)N(C)C(=O)C1CCN(C(=O)C2CC2)CC1 (stereo not given)	6.217	-2.457
COCCN1CCCC(O)(CN2CCN(c3cc(C)ccn3)CC2)C1=O (stereo not given)	16.77	1.587
Cc1cccc(CN2CCCCC23CCNC3)n1.O=C(O)C(F)(F)F.O=C(O)C(F)(F)F (stereo not given)	-2.51	-
CC(C)N(C)S(=O)(=O)NCc1cccnc1N(C)C	23.98	14.29
O=C(Cc1cccc(O)c1)N1CCCC(O)(CN2CCCC2)CC1 (stereo not given)	3.98	10.02
CN(Cc1cccnc1)[C@@H]1CN(C(=O)c2ccco2)[C@@H]2CCCO[C@H]12	-	-1.235
COc1ccc(OC)c2c(C)cc(N(C)Cc3cc(C)on3)nc12	4.215	7.127
CCc1ccc(C(=O)N2CCCC2c2c(C)nn(C)c2OC)o1 (stereo not given)	16.94	2.2
CC(C)CCN1CCc2cc(C(=O)N(C)C)c(NCC3CC3)nc2CC1.O=C(O)C(F)(F)F.O=C(O)C(F)(F)F	-19.77	-
Cc1cc(C(=O)N2CCc3c(ncn3CCc3ccccc3)C2)on1	14.59	-11.98
CCOC(=O)C1CCN(Cc2csc(-c3ccc(C)o3)n2)CC1	23.04	5.471
CC(C)N(C)C(=O)C1CCC2(CCNCC2)O1 (stereo not given)	-	-0.9662
O=C1[C@H]2CN(Cc3cccs3)C[C@H]2CN1c1ccsc1	-	-0.2028
CCCc1cc(NCc2ccc(CO)cc2)n2nccc2n1	23.56	-3.736
Cc1ccc2c(n1)N(C)CCN(C(=O)NC(C)C)C2.O=C(O)C(F)(F)F	13.65	-
c1cnc(N2CCOCC3(CN(Cc4cc[nH]n4)CCO3)C2)nc1 (stereo not given)	-	-1.667
CN(C)C(=O)CCC(=O)N1CCC2(CC1)COC2	8.393	3.817
CC(C)CNC(=O)C[S+]([O-])Cc1csc(C2CCCCC2)n1 (stereo not given)	24.43	-6.8
CC(c1nc(C2CC2)no1)N1CCN(CCn2ccccc2=O)CC1 (stereo not given)	21.89	3.913
CCC(=O)N1CCC[C@]2(C(=O)N(C)C)CN(c3ccccn3)C[C@@H]2C1	-	-9.741
COc1ccc(CN2CCCn3cnc(COCC4CC4)c3C2)cc1	-	-4.516
Cc1nc(CN2CCN(S(=O)(=O)N3CCOCC3)CC2)oc1C	8.462	2.42
COc1ccc(OC)c(CCNc2ncc(S(N)(=O)=O)s2)c1	1.812	3.34
COc1cccc(CN(C)C(=O)CN2CCN(c3nccs3)CC2)c1	39.95	1.107
COCCN(Cc1ccccc1)C(=O)c1csc(-c2nnc[nH]2)n1	17.75	-4.04
CCOC(=O)c1ccc(CNC(=O)c2ccon2)o1	-12.96	2.161
CC(C)Cc1cc(C(=O)NC(C)(C)c2nnc(N)s2)n(C)n1	6.73	0.9901
CN(C)c1ncc(NS(=O)(=O)c2ccc(OC(F)(F)F)cc2)cn1	5.976	-0.9685